Laboratory results as given in paper PMC11467429.
Results are given in words; binding and its absence hold for the method and conditions named. Binding seen in cells or lysates may run through a third protein. Some results given as binding are weak or reduced against the parent protein; the word gives no strength. For some of these results: Where a sequence is shown, tags or fusion partners need not be part of it.

Experiments:
Flag-tagged MDA5 = target: T1, Flag-tagged MDA5 (UniProt Q9BYX4); experiment: co-IP; HEK293T cells co-transfected with tagged plasmids, 18 h; lysed in IP buffer (20 mM Tris pH 7.5, 150 mM NaCl, 1% Triton X-100); IP with anti-Flag antibody (Fig. 2F also anti-myc), protein G magnetic beads, immunoblot
T1 sequence: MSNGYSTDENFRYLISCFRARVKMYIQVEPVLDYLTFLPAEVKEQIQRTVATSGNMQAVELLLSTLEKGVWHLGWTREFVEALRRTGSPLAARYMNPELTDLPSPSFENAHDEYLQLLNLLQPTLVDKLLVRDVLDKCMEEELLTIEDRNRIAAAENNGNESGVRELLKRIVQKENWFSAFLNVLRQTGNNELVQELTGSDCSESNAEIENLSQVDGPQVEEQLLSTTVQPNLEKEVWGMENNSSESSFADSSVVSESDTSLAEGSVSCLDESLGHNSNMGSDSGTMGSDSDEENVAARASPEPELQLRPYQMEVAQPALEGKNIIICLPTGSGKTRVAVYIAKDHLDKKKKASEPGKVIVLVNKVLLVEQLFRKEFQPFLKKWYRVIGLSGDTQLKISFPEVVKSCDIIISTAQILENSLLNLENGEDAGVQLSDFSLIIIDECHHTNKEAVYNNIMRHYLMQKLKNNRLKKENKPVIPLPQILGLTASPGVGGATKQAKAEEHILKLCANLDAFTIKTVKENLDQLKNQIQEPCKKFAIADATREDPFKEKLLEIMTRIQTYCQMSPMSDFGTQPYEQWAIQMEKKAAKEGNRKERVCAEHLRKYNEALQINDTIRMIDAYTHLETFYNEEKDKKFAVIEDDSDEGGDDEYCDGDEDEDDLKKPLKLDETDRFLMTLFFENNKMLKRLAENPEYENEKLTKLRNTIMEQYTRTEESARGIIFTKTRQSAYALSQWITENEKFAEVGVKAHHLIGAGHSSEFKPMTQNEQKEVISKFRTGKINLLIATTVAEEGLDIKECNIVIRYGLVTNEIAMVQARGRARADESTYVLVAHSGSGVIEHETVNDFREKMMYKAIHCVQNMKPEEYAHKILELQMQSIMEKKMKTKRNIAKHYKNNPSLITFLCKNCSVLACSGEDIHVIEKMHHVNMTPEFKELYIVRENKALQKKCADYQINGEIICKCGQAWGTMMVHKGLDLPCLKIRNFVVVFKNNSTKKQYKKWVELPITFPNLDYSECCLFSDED

[1] = target: T2, MDA5 (endogenous, A549) (human (endogenous in A549)) (UniProt Q9BYX4); experiment: co-IP; endogenous proteins in A549 lysates, uninfected or infected with EMCV for indicated times; IP with anti-MDA5 antibody (Fig. 2G; antibody not named for Fig. 5D), immunoblot
T2 sequence: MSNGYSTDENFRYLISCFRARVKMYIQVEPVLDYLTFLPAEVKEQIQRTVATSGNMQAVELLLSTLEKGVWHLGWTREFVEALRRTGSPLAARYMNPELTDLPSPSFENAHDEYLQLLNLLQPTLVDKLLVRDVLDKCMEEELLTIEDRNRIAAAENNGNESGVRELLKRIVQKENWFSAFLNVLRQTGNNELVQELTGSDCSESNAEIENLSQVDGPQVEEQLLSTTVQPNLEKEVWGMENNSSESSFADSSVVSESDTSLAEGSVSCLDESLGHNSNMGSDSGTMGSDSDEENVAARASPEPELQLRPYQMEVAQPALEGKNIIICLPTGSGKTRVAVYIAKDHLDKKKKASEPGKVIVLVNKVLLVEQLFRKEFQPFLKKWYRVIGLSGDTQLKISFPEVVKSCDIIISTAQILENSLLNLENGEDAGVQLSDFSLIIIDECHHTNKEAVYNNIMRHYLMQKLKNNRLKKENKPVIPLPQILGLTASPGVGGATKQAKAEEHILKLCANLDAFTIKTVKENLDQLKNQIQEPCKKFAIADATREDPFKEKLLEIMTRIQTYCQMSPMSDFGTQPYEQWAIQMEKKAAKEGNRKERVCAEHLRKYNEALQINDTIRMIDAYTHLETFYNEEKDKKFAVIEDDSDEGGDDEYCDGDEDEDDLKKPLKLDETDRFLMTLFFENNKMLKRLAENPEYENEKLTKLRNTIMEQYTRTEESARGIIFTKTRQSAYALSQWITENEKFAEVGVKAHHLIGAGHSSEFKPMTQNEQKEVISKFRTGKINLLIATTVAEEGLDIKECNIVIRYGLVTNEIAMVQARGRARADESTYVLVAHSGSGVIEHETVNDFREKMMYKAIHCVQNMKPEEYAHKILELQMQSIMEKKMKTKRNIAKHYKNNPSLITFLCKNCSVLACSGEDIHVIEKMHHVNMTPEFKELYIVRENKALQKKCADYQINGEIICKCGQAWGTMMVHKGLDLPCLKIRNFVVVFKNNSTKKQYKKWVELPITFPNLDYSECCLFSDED

B1: Myc-tagged RNF144B (protein, UniProt Q7Z419 1-303)
chain: MGSAGRLHYLAMTAENPTPGDLAPAPLITCKLCLCEQSLDKMTTLQECQCIFCTACLKQYMQLAIREGCGSPITCPDMVCLNHGTLQEAEIACLVPVDQFQLYQRLKFEREVHLDPYRTWCPVADCQTVCPVASSDPGQPVLVECPSCHLKFCSCCKDAWHAEVSCRDSQPIVLPTEHRALFGTDAEAPIKQCPVCRVYIERNEGCAQMMCKNCKHTFCWYCLQNLDNDIFLRHYDKGPCRNKLGHSRASVMWNRTQVVGILVGLGIIALVTSPLLLLASPCIICCVCKSCRGKKKKHDPSTT
In the case of B1, the binding (Flag-tagged MDA5) is reported as “binds”.

B2: CCDC50 (endogenous, A549) (protein, UniProt Q8IVM0 1-306)
chain: MAEVSIDQSKLPGVKEVCRDFAVLEDHTLAHSLQEQEIEHHLASNVQRNRLVQHDLQVAKQLQEEDLKAQAQLQKRYKDLEQQDCEIAQEIQEKLAIEAERRRIQEKKDEDIARLLQEKELQEEKKRKKHFPEFPATRAYADSYYYEDGGMKPRVMKEAVSTPSRMAHRDQEWYDAEIARKLQEEELLATQVDMRAAQVAQDEEIARLLMAEEKKAYKKAKEREKSSLDKRKQDPEWKPKTAKAANSKSKESDEPHHSKNERPARPPPPIMTDGEDADYTHFTNQQSSTRHFSKSESSHKGFHYKH
With B2 the binding [1] was “binds”.

B3: RNF144B (endogenous, A549) (protein, UniProt Q7Z419 1-303)
chain: MGSAGRLHYLAMTAENPTPGDLAPAPLITCKLCLCEQSLDKMTTLQECQCIFCTACLKQYMQLAIREGCGSPITCPDMVCLNHGTLQEAEIACLVPVDQFQLYQRLKFEREVHLDPYRTWCPVADCQTVCPVASSDPGQPVLVECPSCHLKFCSCCKDAWHAEVSCRDSQPIVLPTEHRALFGTDAEAPIKQCPVCRVYIERNEGCAQMMCKNCKHTFCWYCLQNLDNDIFLRHYDKGPCRNKLGHSRASVMWNRTQVVGILVGLGIIALVTSPLLLLASPCIICCVCKSCRGKKKKHDPSTT
With B3 the binding [1] was “binds”.

B4: CCDC50 (protein, UniProt Q8IVM0 1-306)
chain: MAEVSIDQSKLPGVKEVCRDFAVLEDHTLAHSLQEQEIEHHLASNVQRNRLVQHDLQVAKQLQEEDLKAQAQLQKRYKDLEQQDCEIAQEIQEKLAIEAERRRIQEKKDEDIARLLQEKELQEEKKRKKHFPEFPATRAYADSYYYEDGGMKPRVMKEAVSTPSRMAHRDQEWYDAEIARKLQEEELLATQVDMRAAQVAQDEEIARLLMAEEKKAYKKAKEREKSSLDKRKQDPEWKPKTAKAANSKSKESDEPHHSKNERPARPPPPIMTDGEDADYTHFTNQQSSTRHFSKSESSHKGFHYKH
In the case of B4, the binding (Flag-tagged MDA5) is reported as “binds”.
